Test results: article PMC8782923, “A Klotho-derived peptide protects against kidney fibrosis by targeting TGF-β signaling” (Nature Communications, 2022)
Results are given in words; binding and its absence hold for the method and conditions named. Binding seen in cells or lysates may run through a third protein. Some results given as binding are weak or reduced against the parent protein; the word gives no strength. Values belong to the binder of their own block, whether it stands above or below them.

Assays:
[1] = biological target: T1, TGF-β receptor 2 (TβR2), endogenous in NRK-49F cells (rat (endogenous in NRK-49F)) (UniProt P38438); experiment: co-IP; TβR1 with TβR2 in cells in the absence or presence of KP1 (Fig. 2h)
T1 sequence: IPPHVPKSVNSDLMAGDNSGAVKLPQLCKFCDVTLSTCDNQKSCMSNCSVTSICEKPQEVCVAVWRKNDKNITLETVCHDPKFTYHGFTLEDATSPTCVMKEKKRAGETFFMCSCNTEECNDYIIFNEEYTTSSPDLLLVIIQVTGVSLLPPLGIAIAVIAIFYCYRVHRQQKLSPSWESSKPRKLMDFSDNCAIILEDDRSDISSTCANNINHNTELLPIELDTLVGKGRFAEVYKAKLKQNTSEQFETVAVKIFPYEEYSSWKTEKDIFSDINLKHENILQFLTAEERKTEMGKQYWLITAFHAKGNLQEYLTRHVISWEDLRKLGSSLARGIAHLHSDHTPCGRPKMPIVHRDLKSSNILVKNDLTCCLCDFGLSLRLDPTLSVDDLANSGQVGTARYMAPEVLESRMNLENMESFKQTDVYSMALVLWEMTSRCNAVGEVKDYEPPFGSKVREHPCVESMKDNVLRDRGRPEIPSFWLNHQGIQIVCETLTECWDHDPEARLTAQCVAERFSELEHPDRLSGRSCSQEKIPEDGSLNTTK

[2] = biological target: T2, FITC-labeled KP1 (human) (UniProt Q9UEF7); experiment: co-IP; reciprocal: mixtures of NRK-49F cell lysate and FITC-KP1 precipitated with anti-FITC, blotted for TβR2 and FITC; only the target purified
T2 sequence (peptide, fluorescein isothiocyanate (FITC) label, position not stated): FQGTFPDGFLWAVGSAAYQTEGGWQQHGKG

[3] = biological target: T1, TGF-β receptor 2 (TβR2), endogenous in NRK-49F cells (rat (endogenous in NRK-49F)); experiment: co-IP; cells transfected with sKlotho plasmid for 24 h, incubated with TGF-β1 in the absence or presence of KP1; precipitated with anti-TβR2

- binding [1]: binds
B1: TβR1, endogenous in NRK-49F cells (receptor, UniProt P80204 30-501)
chain: LQCFCHLCTKDNFTCETDGLCFVSVTETTDKVIHNSMCIAEIDLIPRDRPFVCAPSSKTGAVTYCCNQDHCNKIELPTTGPFSEKQSAGLGPVELAAVIAGPVCFVCIALMLMVYICHNRTVIHHRVPNEEDPSLDRPFISEGTTLKDLIYDMTTSGSGSGLPLLVQRTIARTIVLQESIGKGRFGEVWRGKWRGEEVAVKIFSSREERSWFREAEIYQTVMLRHENILGFIAADNKDNGTWTQLWLVSDYHEHGSLFDYLNRYTVTVEGMIKLALSTASGLAHLHMEIVGTQGKPAIAHRDLKSKNILVKKNGTCCIADLGLAVRHDSATDTIDIAPNHRVGTKRYMAPEVLDDSINMKHFESFKRADIYAMGLVFWEIARRCSIGGIHEDYQLPYYDLVPSDPSVEEMRKVVCEQKLRPNIPNRWQSCEALRVMAKIMRECWYANGAARLTALRIKKTLSQLSQQEGIKM

- binding [2]: binds
B2: TGF-β receptor 2 (TβR2), endogenous in NRK-49F cells (receptor, UniProt P38438 24-567)
chain: T1 sequence

- binding [3]: binds
B3: human secreted Klotho (sKlotho) that only contains KL1 domain (protein, UniProt Q9UEF7-2 34-549)
chain: EPGDGAQTWARFSRPPAPEAAGLFQGTFPDGFLWAVGSAAYQTEGGWQQHGKGASIWDTFTHHPLAPPGDSRNASLPLGAPSPLQPATGDVASDSYNNVFRDTEALRELGVTHYRFSISWARVLPNGSAGVPNREGLRYYRRLLERLRELGVQPVVTLYHWDLPQRLQDAYGGWANRALADHFRDYAELCFRHFGGQVKYWITIDNPYVVAWHGYATGRLAPGIRGSPRLGYLVAHNLLLAHAKVWHLYNTSFRPTQGGQVSIALSSHWINPRRMTDHSIKECQKSLDFVLGWFAKPVFIDGDYPESMKNNLSSILPDFTESEKKFIKGTADFFALCFGPTLSFQLLDPHMKFRQLESPNLRQLLSWIDLEFNHPQIFIVENGWFVSGTTKRDDAKYMYYLKKFIMETLKAIKLDGVDVIGYTAWSLMDGFEWHRGYSIRRGLFYVDFLSQDKMLLPKSSALFYQKLIEKNGFPPLPENQPLEGTFPCDFAWGVVDNYIQVSQLTKPISSLTKPYH
